According to PMC9075623:
These are yes or no findings as the source states them, for the method shown. In cells and extracts the contact can be indirect.

By UniProt entry, the sequences of proteins in these tests, tags left out.
UniProt P21796: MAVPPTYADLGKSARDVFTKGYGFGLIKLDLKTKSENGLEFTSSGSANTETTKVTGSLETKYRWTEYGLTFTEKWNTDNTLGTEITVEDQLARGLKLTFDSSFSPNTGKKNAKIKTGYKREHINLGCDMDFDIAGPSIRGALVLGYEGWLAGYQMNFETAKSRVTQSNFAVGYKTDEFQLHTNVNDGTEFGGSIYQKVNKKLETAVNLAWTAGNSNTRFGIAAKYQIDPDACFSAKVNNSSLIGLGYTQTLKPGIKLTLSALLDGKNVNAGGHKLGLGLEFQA
UniProt P04406: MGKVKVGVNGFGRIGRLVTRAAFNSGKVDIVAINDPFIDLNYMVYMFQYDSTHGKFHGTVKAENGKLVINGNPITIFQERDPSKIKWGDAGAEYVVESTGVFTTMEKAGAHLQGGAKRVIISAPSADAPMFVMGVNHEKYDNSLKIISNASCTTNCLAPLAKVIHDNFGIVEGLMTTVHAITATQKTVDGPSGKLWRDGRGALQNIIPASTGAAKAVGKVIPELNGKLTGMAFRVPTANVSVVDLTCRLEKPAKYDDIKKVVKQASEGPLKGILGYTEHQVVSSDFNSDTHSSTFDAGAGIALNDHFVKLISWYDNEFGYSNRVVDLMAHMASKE

Target: voltage-dependent anion-selective channel protein 1 (VDAC1) (human (endogenous in U87MG)) (UniProt P21796)
Experiment: co-IP; U87MG cells overexpressing V5-tagged TSPO^WT or TSPO^A147T; IP with antibody against the endogenous partner (VDAC1, Hsp90AA1), immunoblot for V5; V5-tagged pcDNA as negative control

GAPDH (from UniProt P04406 1-335)
binding: no binding
